Experimental data published in paper PMC12313019, “Fibrotic lung ECM upregulates SDC4/integrin-αvβ1 interaction and the interfering peptide SDC4_87-131 and its derivative peptides alleviate pulmonary fibrosis” (Regenerative Biomaterials, 2025).
Results are given in words; binding and its absence hold for the method and conditions named. In cells and extracts the contact can be indirect. Some binding calls cover weakened binding; strength is not graded here.

By UniProt entry, the sequences of proteins in these tests, tags left out. Residues count along the entry.
UniProt P09055, residues 21-798: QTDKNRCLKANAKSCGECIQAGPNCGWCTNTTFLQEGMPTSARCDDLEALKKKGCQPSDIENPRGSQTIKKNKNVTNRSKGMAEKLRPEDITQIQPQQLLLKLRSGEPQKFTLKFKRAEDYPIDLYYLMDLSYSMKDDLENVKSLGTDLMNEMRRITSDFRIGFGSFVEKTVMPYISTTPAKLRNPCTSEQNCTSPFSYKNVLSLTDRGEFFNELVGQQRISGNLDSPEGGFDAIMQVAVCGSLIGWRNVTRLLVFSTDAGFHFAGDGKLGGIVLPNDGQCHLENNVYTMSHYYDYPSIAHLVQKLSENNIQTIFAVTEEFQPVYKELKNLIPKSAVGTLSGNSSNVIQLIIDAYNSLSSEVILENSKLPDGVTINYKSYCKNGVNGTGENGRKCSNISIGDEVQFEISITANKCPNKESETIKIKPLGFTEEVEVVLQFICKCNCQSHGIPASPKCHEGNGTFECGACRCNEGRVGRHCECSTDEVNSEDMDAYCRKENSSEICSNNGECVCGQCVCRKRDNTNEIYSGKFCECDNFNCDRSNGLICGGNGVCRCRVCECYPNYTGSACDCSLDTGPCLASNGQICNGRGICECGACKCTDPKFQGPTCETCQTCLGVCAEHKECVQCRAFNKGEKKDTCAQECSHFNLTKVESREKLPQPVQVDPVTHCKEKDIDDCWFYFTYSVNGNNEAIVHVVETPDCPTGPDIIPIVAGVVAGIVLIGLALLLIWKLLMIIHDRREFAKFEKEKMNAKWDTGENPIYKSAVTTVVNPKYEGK

Target: T1, syndecan-4 (SDC4) (mouse (endogenous in NIH3T3 and C57BL/6J lung)) (UniProt O35988)
T1 sequence: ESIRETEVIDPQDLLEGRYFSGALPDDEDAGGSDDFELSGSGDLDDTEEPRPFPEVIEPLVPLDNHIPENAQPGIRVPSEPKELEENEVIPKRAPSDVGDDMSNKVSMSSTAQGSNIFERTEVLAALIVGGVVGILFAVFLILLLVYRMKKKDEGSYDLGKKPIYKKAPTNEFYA
Experiment: proximity ligation; Duolink PLA on NIH3T3 cells cultured on dECM-Nor or dECM-PF; antibodies against the extracellular domain of SDC4 (5G9), integrin-αv and integrin-β1; with Anti-SDC4_((93-121)) 500 ng/mL or SDC4_(87-131) 100 nM

binding: binds
Substance: integrin-β1 (from UniProt P09055 21-798) (receptor)
